The record followed here is patent US7528225B2, “Peptide epitopes of apolipoprotein B” (Forskarpapatent I Syd, priority 2001, dated 2009).

Entries after “also recorded” stand apart in the source; their conditions may differ. Some entries repeat one wording, which the source may state once for all of them.

In data set [1] the test system is antibodies in human plasma. The experiment in a line: Peptide ELISA screening of the apo B peptide library with pooled human plasma (AHP/NHP, CHD/control). It is filed as binding. More on the design: key to Group of antibody response to the peptide (Table 1, groups A-G): High levels of IgG antibodies to MDA-modified peptides; B: High levels of IgM antibodies, but no difference between native and MDA-modified peptides; C: High levels of IgG antibodies, but no difference between native and MDA-modified peptides; High levels of IgG antibodies to MDA-modified peptides and at least twice as much antibodies in the NHP-pool as compared to the AHP-pool; E: High levels of IgM antibodies to MDA-modified peptides and at least twice as much antibodies in the NHP-pool as compared to the AHP-pool; F: High levels of IgG antibodies, but no difference between intact and MDA-modified peptides but at least twice as much antibodies in the AHP-pool as compared to the NHP-pool; No level of IgG or IgM antibodies. The conditions noted are these: for Group of antibody response to the peptide (Table 1, groups A-G): pooled human plasma AHP and NHP diluted 1/100, native and MDA-modified peptides, IgG or IgM; for antibody titers, control plasma compared to plasma from CHD subjects: pooled plasma from healthy controls vs pooled CHD plasma (n=10); for antibody response in the initial antibody screening (in words): pooled human plasma, native vs MDA modified form.

Data set [2] concerns antibodies against MDA-modified peptide sequences in apo B-100. The experiment in a line: Prospective nested case control study (78 cases, 149 controls): antibody levels against MDA-modified apo B-100 peptides, carotid IMT and CHD. Also noted: species or system human. The conditions noted are these: for antibody levels in cases as compared to controls, younger age group: MDA-modified peptides, under the median age (61 years).

For the substance FPDLGQEVALNANTKNQKIR [Peptide 240], in data set [1], the “Group of antibody response to the peptide (Table 1, groups A-G)” value (from here on “Group of antibody response”) was “F. NHS/AHP, IgG-ak < 0.5, no MDA-difference” and the “antibody titers, control plasma compared to plasma from CHD subjects” value is given as “higher in plasma from CHD patients”.

For EEEMLENVSLVCPKDATRFK [Peptide 1], in data set [1], the “Group of antibody response” value is “D. NHS/AHP, IgG-ak > 2, MDA-difference”; the “antibody response in the initial antibody screening (in words)” value (“antibody response … (in words)” for short) is reported as “higher IgG or IgM antibody response to MDA modified form than native peptide, respectively”; the “antibody titers, control plasma compared to plasma from CHD subjects” value is given as “at least twice as high”.

Regarding RLNGESNLRFNSSYLQGTNQ [Peptide 100], in data set [1] (listed as P 100), the “Group of antibody response” value is “B. High IgM, no MDA-difference; also recorded: E. NHS/AHP, IgM-ak > 2, MDA-difference”. The “antibody titers, control plasma compared to plasma from CHD subjects” value in data set [1] is “at least twice as high”.

As to GHSVLTAKGMALFGEGKAEF [Peptide 199], in data set [1], the “Group of antibody response” value is reported as “F. NHS/AHP, IgG-ak < 0.5, no MDA-difference” and the “antibody titers, control plasma compared to plasma from CHD subjects” value was “higher in plasma from CHD patients”.

For the substance LKFVTQAEGAKQTEATMTFK [Peptide 68], the “Group of antibody response” value in data set [1] was “B. High IgM, no MDA-difference”.

As to EATLQRIYSLWEHSTKNHLQ [Peptide 236], in data set [1], the “Group of antibody response” value was “E. NHS/AHP, IgM-ak > 2, MDA-difference” and the “antibody titers, control plasma compared to plasma from CHD subjects” value is recorded as “at least twice as high”.

In the case of DMTFSKQNALLRSEYQADYE [Peptide 105], the “Group of antibody response” value in data set [1] is listed as “B. High IgM, no MDA-difference”.

Turning to TYISDWWTLAAKNLTDFAEQ [Peptide 169], in data set [1], the “Group of antibody response” value was “E. NHS/AHP, IgM-ak > 2, MDA-difference” and the “antibody titers, control plasma compared to plasma from CHD subjects” value is recorded as “at least twice as high”.

As for IEIGLEGKGFEPTLEALFGK [Peptide 45], in data set [1], the “Group of antibody response” value is “F. NHS/AHP, IgG-ak < 0.5, no MDA-difference” and the “antibody titers, control plasma compared to plasma from CHD subjects” value is “higher in plasma from CHD patients”. Further, the “antibody levels in cases as compared to controls, younger age group” value in data set [2] is on record as “increased antibody levels”.

For the substance IALDDAKINFNEKLSQLQTY [Peptide 143], in data set [1], the “Group of antibody response” value is “C. High IgG, no MDA difference”.

As to ALLVPPETEEAKQVLFLDTV [Peptide 10], in data set [1], the “Group of antibody response” value is “F. NHS/AHP, IgG-ak < 0.5, no MDA-difference” and the “antibody titers, control plasma compared to plasma from CHD subjects” value is given as “higher in plasma from CHD patients”.

For the substance TASLKYENYELTLKSDTNGK [Peptide 103], the “Group of antibody response” value in data set [1] was “B. High IgM, no MDA-difference”.

Take GNMGQTMEQLTPELKSSILK [Peptide 32]: the “Group of antibody response” value in data set [1] is listed as “E. NHS/AHP, IgM-ak > 2, MDA-difference”. Moreover, the “antibody levels in cases as compared to controls, younger age group” value in data set [2] is “increased antibody levels”.

Take IENIDFNKSGSSTASWIQNV [Peptide 148]: in data set [1], the “Group of antibody response” value was “D. NHS/AHP, IgG-ak > 2, MDA-difference” and the “antibody titers, control plasma compared to plasma from CHD subjects” value was “at least twice as high”.

In the case of GSTSHHLVSRKSISAALEHK [Peptide 129], the “Group of antibody response” value in data set [1] is listed as “D. NHS/AHP, IgG-ak > 2, MDA-difference”.

For FLDTVYGNCSTHFTVKTRKG [Peptide 11], the “Group of antibody response” value in data set [1] is given as “A. High IgG, MDA-difference”.

In the case of IQKAAIQALRKMEPKDKDQE [Peptide 34], in data set [1], the “Group of antibody response” value is given as “E. NHS/AHP, IgM-ak > 2, MDA-difference”.

With KTTKQSFDLSVKAQYKKNKH [Peptide 210], in data set [1], the “Group of antibody response” value was “C. High IgG, no MDA difference”.

As for SSILKCVQSTKPSLMIQKAA [Peptide 33], the “Group of antibody response” value in data set [1] is listed as “E. NHS/AHP, IgM-ak > 2, MDA-difference”.

NLIGDFEVAEKINAFRAKVH [Peptide 154]: in data set [1], the “Group of antibody response” value is reported as “F. NHS/AHP, IgG-ak < 0.5, no MDA-difference” and the “antibody titers, control plasma compared to plasma from CHD subjects” value was “higher in plasma from CHD patients”.

Regarding CTGDEDYTYKIKRVIGNMGQ [Peptide 31], in data set [1], the “Group of antibody response” value was “E. NHS/AHP, IgM-ak > 2, MDA-difference”.

As to SLTSTSDLQSGIIKNTASLK [Peptide 102], the “Group of antibody response” value in data set [1] is given as “B. High IgM, no MDA-difference”.

For the substance SGASMKLTTNGRFREHNAKF [Peptide 111], in data set [1], the “Group of antibody response” value is listed as “F. NHS/AHP, IgG-ak < 0.5, no MDA-difference” and the “antibody titers, control plasma compared to plasma from CHD subjects” value is “higher in plasma from CHD patients”.

For SLNSHGLELNADILGTDKIN [Peptide 107], in data set [1], the “Group of antibody response” value is recorded as “E. NHS/AHP, IgM-ak > 2, MDA-difference” and the “antibody titers, control plasma compared to plasma from CHD subjects” value is “at least twice as high”.

Take WIQNVDTKYQIRIQIQEKLQ [Peptide 149]: in data set [1], the “Group of antibody response” value is “E. NHS/AHP, IgM-ak > 2, MDA-difference” and the “antibody titers, control plasma compared to plasma from CHD subjects” value is on record as “at least twice as high”.

Turning to HTFLIYITELLKKLQSTTVM [Peptide 301], in data set [1], the “Group of antibody response” value was “E. NHS/AHP, IgM-ak > 2, MDA-difference”; the “antibody response … (in words)” value is “higher IgG or IgM antibody response to MDA modified form than native peptide, respectively”; the “antibody titers, control plasma compared to plasma from CHD subjects” value is on record as “at least twice as high”.

In the case of ATRFKHLRKYTYNYQAQSSS [Peptide 2], in data set [1], the “Group of antibody response” value is on record as “G” and the “antibody response … (in words)” value is “no antibody response”.

Regarding KGTYGLSCQRDPNTGRLNGE [Peptide 99], in data set [1], the “Group of antibody response” value is “B. High IgM, no MDA-difference”.

With VISIPRLQAEARSEILAHWS [Peptide 74], the “Group of antibody response” value in data set [1] is recorded as “A. High IgG, MDA-difference”. Besides, in data set [2], the “antibody levels in cases as compared to controls, younger age group” value is “decreased antibody levels”.

Take IREVTQRLNGEIQALELPQK [Peptide 162]: in data set [1], the “Group of antibody response” value was “D. NHS/AHP, IgG-ak > 2, MDA-difference” and the “antibody titers, control plasma compared to plasma from CHD subjects” value is “at least twice as high”.

With “MDA 74: peptide 74 modified by 0.5 M MDA (malone dialdehyde) (VISIPRLQAEARSEILAHWS)”, the “IgM levels against MDA peptide, cases” value in data set [2] (78 cases, median) turned out to be 0.178 absorbance units. In addition, in data set [2] (149 controls, median), the “IgM levels against MDA peptide, controls” value turned out to be 0.258 absorbance units.

In the case of DGSLRHKFLDSNIKFSHVEK [Peptide 94], the “Group of antibody response” value in data set [1] is “B. High IgM, no MDA-difference”.

As to FKSSVITLNTNAELFNQSDI [Peptide 222], in data set [1], the “Group of antibody response” value is reported as “F. NHS/AHP, IgG-ak < 0.5, no MDA-difference” and the “antibody titers, control plasma compared to plasma from CHD subjects” value is “higher in plasma from CHD patients”.

PQCSTHILQWLKRVHANPLL [Peptide 25]: the “Group of antibody response” value in data set [1] is recorded as “A. High IgG, MDA-difference”.

On to EVDVLTKYSQPEDSLIPFFE [Peptide 252], for which, in data set [1], the “Group of antibody response” value was “D. NHS/AHP, IgG-ak > 2, MDA-difference” and the “antibody titers, control plasma compared to plasma from CHD subjects” value is listed as “at least twice as high”.

For the substance MKVKIIRTIDQMQNSELQWP [Peptide 177], the “Group of antibody response” value in data set [1] is on record as “B. High IgM, no MDA-difference”.

KLVKEALKESQLPTVMDFRK [Peptide 40]: in data set [1], the “Group of antibody response” value was “B. High IgM, no MDA-difference”.

Take LLDIANYLMEQIQDDCTGDE [Peptide 30]: the “Group of antibody response” value in data set [1] is given as “E. NHS/AHP, IgM-ak > 2, MDA-difference”.
